{"source": "the supplement of paper PMC4604168 (melanoma cell lines)", "note": "Some of the results follow. Repeats are few or missing, and single values can be far off.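 Imaging used 1,536-well plates; nuclei positive for cleaved PARP by antibody were divided by total DNA-stained nuclei to yield the apoptosis fraction. Doses for screening kept most cells viable, and cell lines differ markedly in resting and induced cleaved-PARP levels.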"}
{"tested_on": "CBRC017 (line from a melanoma biopsy)", "experiment": "cleaved PARP positive nuclei fraction relative to DMSO control; melanoma cells; higher = more apoptosis", "conditions": "library dose: low library concentration; 72 h", "units": {"cleaved PARP positive nuclei fraction": "%"}}
{"compound": "CS(=O)(=O)c1ccc(C(=O)Nc2ccc(Cl)c(-c3ccccn3)c2)c(Cl)c1", "note": "[vismodegib] + OCc1c[nH]c2ccccc12 [Indole-3-carbinol] (first compound 1 µM, partner dose 0.8 µM)", "cleaved PARP positive nuclei fraction": 82.3}
{"compound": "COc1ccc(C2=N[C@@H](c3ccc(Cl)cc3)[C@@H](c3ccc(Cl)cc3)N2C(=O)N2CCNC(=O)C2)c(OC(C)C)c1", "note": "[Nutlin-3] + NC1(c2ccc(-c3nc4ccn5c(=O)[nH]nc5c4cc3-c3ccccc3)cc2)CCC1 [MK2206] (first compound 0.1 µM, partner dose 0.4 µM)", "cleaved PARP positive nuclei fraction": 111}
{"compound": "COc1ccc(C2=N[C@@H](c3ccc(Cl)cc3)[C@@H](c3ccc(Cl)cc3)N2C(=O)N2CCNC(=O)C2)c(OC(C)C)c1", "note": "[Nutlin-3] + Clc1ccc(Nc2nnc(Cc3ccncc3)c3ccccc23)cc1 [vatalanib] (first compound 0.1 µM, partner dose 2 µM)", "cleaved PARP positive nuclei fraction": 110}
{"compound": "Cn1sc(=O)n(Cc2ccccc2)c1=O", "note": "+ CN(c1ncccc1CNc1nc(Nc2ccc3c(c2)CC(=O)N3)ncc1C(F)(F)F)S(C)(=O)=O [PF562271] (first compound 0.4 µM, partner dose 0.08 µM)", "cleaved PARP positive nuclei fraction": 217}
{"compound": "Cn1cnc2c(F)c(Nc3ccc(Br)cc3Cl)c(C(=O)NOCCO)cc21", "note": "[selumetinib] + CNC(=O)c1cc(Oc2ccc(NC(=O)Nc3ccc(Cl)c(C(F)(F)F)c3)cc2)ccn1 [sorafenib] (first compound 0.015 µM, partner dose 0.4 µM)", "cleaved PARP positive nuclei fraction": 85.7}
{"compound": "NC1(c2ccc(-c3nc4ccn5c(=O)[nH]nc5c4cc3-c3ccccc3)cc2)CCC1", "note": "+ CCCS(=O)(=O)Nc1ccc(F)c(C(=O)c2c[nH]c3ncc(Cl)cc23)c1F [PLX4720] (first compound 0.4 µM, partner dose 0.08 µM)", "cleaved PARP positive nuclei fraction": 92.7}
{"compound": "NC(=O)c1ccc(N(C(N)=O)c2c(F)cccc2F)nc1-c1ccc(F)cc1F", "note": "+ C#Cc1cccc(Nc2ncnc3cc(OCCOC)c(OCCOC)cc23)c1 [erlotinib] (first compound 0.4 µM, partner dose 0.8 µM)", "cleaved PARP positive nuclei fraction": 538}
{"compound": "C[C@@H](N)c1ccc(C(=O)Nc2ccnc3[nH]ccc23)cc1", "note": "+ Cn1sc(=O)n(Cc2ccccc2)c1=O [TDZD-8] (first compound 0.4 µM, partner dose 0.4 µM)", "cleaved PARP positive nuclei fraction": 121}
{"compound": "CS(=O)(=O)c1ccc(C(=O)Nc2ccc(Cl)c(-c3ccccn3)c2)c(Cl)c1", "note": "[vismodegib] + CCCCCCCCc1ccc(CCC(N)(CO)CO)cc1 [fingolimod] (first compound 1 µM, partner dose 2 µM)", "cleaved PARP positive nuclei fraction": 152}
{"compound": "Cn1cnc2c(F)c(Nc3ccc(Br)cc3Cl)c(C(=O)NOCCO)cc21", "note": "[selumetinib] + C#Cc1cccc(Nc2ncnc3cc(OCCOC)c(OCCOC)cc23)c1 [erlotinib] (first compound 0.015 µM, partner dose 0.8 µM)", "cleaved PARP positive nuclei fraction": 185}
{"compound": "CC1(C)CCC(c2ccc(Cl)cc2)=C(CN2CCN(c3ccc(C(=O)NS(=O)(=O)c4ccc(N[C@H](CCN5CCOCC5)CSc5ccccc5)c(S(=O)(=O)C(F)(F)F)c4)cc3)CC2)C1", "note": "+ CS(=O)(=O)CCNCc1ccc(-c2ccc3ncnc(Nc4ccc(OCc5cccc(F)c5)c(Cl)c4)c3c2)o1 [lapatinib] (first compound 0.4 µM, partner dose 0.8 µM)", "cleaved PARP positive nuclei fraction": 395}
{"compound": "CC1(C)CCC(c2ccc(Cl)cc2)=C(CN2CCN(c3ccc(C(=O)NS(=O)(=O)c4ccc(N[C@H](CCN5CCOCC5)CSc5ccccc5)c(S(=O)(=O)C(F)(F)F)c4)cc3)CC2)C1", "note": "+ O=C(O)[C@@H]1[O][Sb](=[O])([O][Sb]2(=[O])[O][C@H]([C@H](O)CO)[C@H](O)[C@H](C(=O)O)[O]2)[O][C@H]([C@H](O)CO)[C@@H]1O [stibogluconate] (first compound 0.4 µM, partner dose 2 µM)", "cleaved PARP positive nuclei fraction": 332}
{"compound": "CC1(C)CCC(c2ccc(Cl)cc2)=C(CN2CCN(c3ccc(C(=O)NS(=O)(=O)c4ccc(N[C@H](CCN5CCOCC5)CSc5ccccc5)c(S(=O)(=O)C(F)(F)F)c4)cc3)CC2)C1", "note": "+ Nc1ccn([C@@H]2O[C@H](CO)[C@@H](O)C2(F)F)c(=O)n1 [gemcitabine] (first compound 0.4 µM, partner dose 0.0004 µM)", "cleaved PARP positive nuclei fraction": 747}
